Results reported in US9999664B2, “HIV-1 gp120 mini V3 loop and uses thereof” (The Scripps Research Institute, priority 2011, dated 2018).
These are yes or no findings as the source states them, for the method shown. Some entries that bind do so weakly or less than the wild type.

Chains of the proteins cited; added tags and fusions are not shown. Residues count along the entry.
UniProt P61823, residues 27-150: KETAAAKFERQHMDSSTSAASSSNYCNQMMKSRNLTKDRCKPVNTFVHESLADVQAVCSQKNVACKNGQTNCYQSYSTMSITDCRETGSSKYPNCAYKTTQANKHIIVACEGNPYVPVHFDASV

Target: RNAse B (UniProt P61823)
Test: ELISA on coated RNAse B, HRP-conjugated lectin, absorbance at 450 nm

B1: GNL (450nm) (protein)
chain: DNILYSGETLSTGEFLNYGSFVFIMQEDCNLVLYDVDKPIWATNTGGLSRSCFLSMQTDGNLVVYNPSNKPIWASNTGGQNGNYVCILQKDRNVVIYGTDRWATG
With B1 the binding was “binds”.
